Experimental data: US10421725B2, “Alkoxyamines for the treatment of cancers” (Centre National De La Recherche Scientifique, priority 2013, dated 2019)

Experiment: Monitoring of ALK-1 homolysis by Overhauser-enhanced MRI (OMRI)
Type: physicochemical
Conditions: 0.8 mM, culture cell medium, 37° C.
From the text: EPR Cavity and MRI devices. The OMRI experiment were done in a C-shaped 0.2 T MRI system (Magnetom Open Viva, Siemens, Erlangen, Germany) and a resonant TE011 transverse electric mode EPR cavity setup (Bruker, Wissembourg, France) as described previously. The EPR cavity, placed at the center of the magnet, was used to saturate the electron spin transition of the nitroxide SG1 produced upon ALK-1 homolysis. A homemade saddle-shaped MRI coil (28 mm in diameter and 29 mm in length) in the EPR cavity was used for imaging.
Electron spin saturation was carried out at 5.4573 GHz, corresponding to the first line at high field from the center of the EPR spectrum. The proton frequency was 8.24 MHz. Sample temperature was kept at 37° C.
OMRI experiments were performed in two NMR tubes (4 mm inner diameter): one containing 0.8 mM of SG1 nitroxide in phosphate buffer saline (not shown) and the other with 0.8 mM of ALK-1 in DMEM, 10% FCS. ALK-1 homolysis was followed for 48 hours.
Pulse sequences. […] All MR adjustments were done manually, using the same fixed receiver amplification gain for both measurements, without (Soff) and with (Son) HF irradiation, so that signals can be directly compared and Overhauser enhancements (Son/Soff) calculated.
Post-processing. […] Signal intensity was measured in a rectangular region of interest of 2 mm^2 positioned in the NMR tube area. […]

With `CCOP(=O)(OCC)C(N(OC(C)c1cc[n+](C)cc1)C(C)(C)C)C(C)(C)C` (centres unmarked) [ALK-1, N-methyl 4-(1-((tert-butyl(1-(diethoxyphosphoryl)-2,2-dimethylpropyl)amino)oxy)ethyl)pyridin-1-ium 4-methylbenzenesulfonate] the OMRI signal amplification (at 5 mM (so in the source) after beginning of homolysis) was 1 fold and the OMRI signal amplification (at 2825 min after beginning of homolysis) was 6 fold.
